From PubChem BioAssay record AID504749 (NCATS, 2011).

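Malaria parasite (P. falciparum) lines kept in red blood cells; parasite DNA is measured by SYBR Green fluorescence after lysis, 72 h after compound addition. Each compound was titrated across a series from about 0.000037 to 29 µM. The number is the fitted AC50, the concentration giving a half-maximal change in signal; a lower value means higher potency, whether the curve shows a decrease or an increase. Calls follow the curve class and fit quality: every row here is inconclusive, covering signal-raising curves and weak, poorly fitted, partial or highest-dose-only inhibition curves.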

Values are in µM. Every entry below has the call inconclusive. Only part of the assay is shown, chiefly results filed as inconclusive. Potencies fitted to partial, single-point or poorly fitting curves are rough.

SMILES	condition	potency (µM)	curve
COCC(=O)N(c1c(C)cccc1C)C(C)C(=O)OC (stereo not given)	DFO2036	1.778	inhibitor, single point
COCC(=O)N(c1c(C)cccc1C)C(C)C(=O)OC (stereo not given)	PAD	3.548	inhibitor, single point
COCC(=O)N(c1c(C)cccc1C)C(C)C(=O)OC (stereo not given)	ATS189	3.981	inhibitor, single point
COCC(=O)N(c1c(C)cccc1C)C(C)C(=O)OC (stereo not given)	CP252	3.981	inhibitor, single point
COCC(=O)N(c1c(C)cccc1C)C(C)C(=O)OC (stereo not given)	CP250	1.122	inhibitor, single point
CC[C@@]12CCCN3CCc4c(n(c5ccccc45)[C@](O)(C(=O)OC)C1)C32 (stereo not given in full)	W2	19.01	inhibitor, single point
CC[C@@]12CCCN3CCc4c(n(c5ccccc45)[C@](O)(C(=O)OC)C1)C32 (stereo not given in full)	DIV17	19.01	inhibitor, partial curve, poor fit
CC[C@@]12CCCN3CCc4c(n(c5ccccc45)[C@](O)(C(=O)OC)C1)C32 (stereo not given in full)	Dd2	12.59	inhibitor, partial curve
CC[C@@]12CCCN3CCc4c(n(c5ccccc45)[C@](O)(C(=O)OC)C1)C32 (stereo not given in full)	ICS	17.78	inhibitor, single point
CC[C@@]12CCCN3CCc4c(n(c5ccccc45)[C@](O)(C(=O)OC)C1)C32 (stereo not given in full)	7G8	6.31	inhibitor, partial curve
O=c1[nH]cc(F)c(=O)[nH]1	CP211	15.1	inhibitor, single point
O=c1[nH]cc(F)c(=O)[nH]1	DIV14	16.94	inhibitor, single point
O=c1[nH]cc(F)c(=O)[nH]1	CP192	19.01	inhibitor, single point
O=c1[nH]cc(F)c(=O)[nH]1	CP256	12.59	inhibitor, single point
O=c1[nH]cc(F)c(=O)[nH]1	CP203	19.01	inhibitor, single point
O=c1[nH]cc(F)c(=O)[nH]1	DIV17	19.01	inhibitor, single point
O=c1[nH]cc(F)c(=O)[nH]1	CP252	14.13	inhibitor, single point
O=c1[nH]cc(F)c(=O)[nH]1	CP185	17.78	inhibitor, single point
O=c1[nH]cc(F)c(=O)[nH]1	CP265	15.85	inhibitor, single point
O=c1[nH]cc(F)c(=O)[nH]1	C2A	8.912	inhibitor, single point
O=c1[nH]cc(F)c(=O)[nH]1	P93_24	10	inhibitor, partial curve, poor fit
O=c1[nH]cc(F)c(=O)[nH]1	ATS95	17.78	inhibitor, single point
O=c1[nH]cc(F)c(=O)[nH]1	HB3	14.13	inhibitor, single point
O=c1[nH]cc(F)c(=O)[nH]1	ICS	14.13	inhibitor, single point
O=c1[nH]cc(F)c(=O)[nH]1	TAB109	17.78	inhibitor, single point
O=c1[nH]cc(F)c(=O)[nH]1	CP325	21.33	inhibitor, single point
O=c1[nH]cc(F)c(=O)[nH]1	CP191	15.85	inhibitor, single point
O=c1[nH]cc(F)c(=O)[nH]1	CP315	16.94	inhibitor, single point
O=c1[nH]cc(F)c(=O)[nH]1	CP238	12.59	inhibitor, single point
O=c1[nH]cc(F)c(=O)[nH]1	DIV30	10.69	inhibitor, partial curve
O=c1[nH]cc(F)c(=O)[nH]1	PAD	17.78	inhibitor, single point
O=c1[nH]cc(F)c(=O)[nH]1	ECU	17.78	inhibitor, single point
O=c1[nH]cc(F)c(=O)[nH]1	TAB113	15.85	inhibitor, single point
O=c1[nH]cc(F)c(=O)[nH]1	N140	17.78	inhibitor, single point
O=c1[nH]cc(F)c(=O)[nH]1	CP291	16.94	inhibitor, partial curve
O=c1[nH]cc(F)c(=O)[nH]1	CP201	15.1	inhibitor, single point
O=c1[nH]cc(F)c(=O)[nH]1	AS120	17.78	inhibitor, single point
O=c1[nH]cc(F)c(=O)[nH]1	P94_40	12.59	inhibitor, partial curve, poor fit
O=c1[nH]cc(F)c(=O)[nH]1	W2	16.94	inhibitor, single point
O=c1[nH]cc(F)c(=O)[nH]1	TAB165	17.78	inhibitor, single point
O=c1[nH]cc(F)c(=O)[nH]1	CP335	19.01	inhibitor, single point
O=c1[nH]cc(F)c(=O)[nH]1	CP217	10	inhibitor, single point
O=c1[nH]cc(F)c(=O)[nH]1	CP329	19.01	inhibitor, single point
O=c1[nH]cc(F)c(=O)[nH]1	CP237	17.78	inhibitor, single point
O=c1[nH]cc(F)c(=O)[nH]1	SC27B	17.78	inhibitor, single point
O=c1[nH]cc(F)c(=O)[nH]1	Dd2	17.78	inhibitor, single point
O=c1[nH]cc(F)c(=O)[nH]1	3D7	11.22	inhibitor, single point
O=c1[nH]cc(F)c(=O)[nH]1	PC26	15.1	inhibitor, single point
O=c1[nH]cc(F)c(=O)[nH]1	CP297	19.01	inhibitor, single point

Some entries from above, unchanged:

{"smiles": "CC[C@@]12CCCN3CCc4c(n(c5ccccc45)[C@](O)(C(=O)OC)C1)C32", "stereo": "stereo not given in full", "condition": "ICS", "potency (µM)": "17.78", "curve": "inhibitor, single point"}
{"smiles": "O=c1[nH]cc(F)c(=O)[nH]1", "condition": "TAB109", "potency (µM)": "17.78", "curve": "inhibitor, single point"}
{"smiles": "O=c1[nH]cc(F)c(=O)[nH]1", "condition": "HB3", "potency (µM)": "14.13", "curve": "inhibitor, single point"}
{"smiles": "O=c1[nH]cc(F)c(=O)[nH]1", "condition": "CP315", "potency (µM)": "16.94", "curve": "inhibitor, single point"}
{"smiles": "COCC(=O)N(c1c(C)cccc1C)C(C)C(=O)OC", "stereo": "stereo not given", "condition": "PAD", "potency (µM)": "3.548", "curve": "inhibitor, single point"}
{"smiles": "CC[C@@]12CCCN3CCc4c(n(c5ccccc45)[C@](O)(C(=O)OC)C1)C32", "stereo": "stereo not given in full", "condition": "W2", "potency (µM)": "19.01", "curve": "inhibitor, single point"}